From the supplement of paper PMC8728848
The list shows a part of the results.

Tests used:
Experiment in all cases: glycan array binding signal (z-score within array); higher = stronger binding
Conditions in all cases: glycan notation: IUPAC condensed, linker removed
[1] = molecular target: Fuc(a1-3)GlcNAc
Method in brief: (§1)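 Negative Z-scores can be read as non-binding. The Z-score is calculated within each array and then averaged across arrays of one protein sequence at different concentrations or buffers and across linkers. Arrays, 3228 in all, were curated from the Consortium for Functional Glycomics database and kept only where the protein sequence was available.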

[2] = molecular target: Fuc(a1-3)[Gal(b1-4)]Glc6S
Method in brief: as §1

[3] = molecular target: Fuc(a1-3)[Gal(b1-4)]GlcNAc
Method in brief: as §1

[4] = molecular target: Fuc(a1-3)[Gal(b1-4)]GlcNAc(b1-2)Man
Method in brief: as §1

[5] = molecular target: Fuc(a1-3)[Gal(b1-4)]GlcNAc(b1-2)Man(a1-3)[Fuc(a1-3)[Gal(b1-4)]GlcNAc(b1-2)Man(a1-6)]Man(b1-4)GlcNAc(b1-4)GlcNAc
Method in brief: as §1

[6] = molecular target: Fuc(a1-3)[Gal(b1-4)]GlcNAc(b1-2)Man(a1-3)[Fuc(a1-3)[Gal(b1-4)]GlcNAc(b1-2)Man(a1-6)]Man(b1-4)GlcNAc(b1-4)[Fuc(a1-6)]GlcNAc
Method in brief: as §1

[7] = molecular target: Fuc(a1-3)[Gal(b1-4)]GlcNAc(b1-3)Gal(b1-3)[Fuc(a1-4)]GlcNAc
Method in brief: as §1

[8] = molecular target: Fuc(a1-3)[Gal(b1-4)]GlcNAc(b1-3)Gal(b1-4)[Fuc(a1-3)]GlcNAc
Method in brief: as §1

[9] = molecular target: Fuc(a1-3)[Gal(b1-4)]GlcNAc(b1-3)Gal(b1-4)[Fuc(a1-3)]GlcNAc(b1-3)Gal(b1-4)[Fuc(a1-3)]GlcNAc
Method in brief: as §1

[10] = molecular target: Fuc(a1-3)[Gal(b1-4)]GlcNAc(b1-3)GalNAc
Method in brief: as §1

[11] = molecular target: Fuc(a1-3)[Gal(b1-4)]GlcNAc(b1-6)GalNAc
Method in brief: as §1

[12] = molecular target: Fuc(a1-3)[Gal(b1-4)]GlcNAc(b1-6)[Gal(b1-3)GlcNAc(b1-3)]Gal(b1-4)Glc
Method in brief: as §1

[13] = molecular target: Fuc(a1-3)[Gal(b1-4)]GlcNAc6S
Method in brief: as §1

[14] = molecular target: Fuc(a1-3)[Gal3S(b1-4)]Glc
Method in brief: as §1

[15] = molecular target: Fuc(a1-3)[Gal3S(b1-4)]GlcNAc
Method in brief: as §1

[16] = molecular target: Fuc(a1-3)[Gal3S(b1-4)]GlcNAc6S
Method in brief: as §1

[17] = molecular target: Fuc(a1-3)[GalNAc(b1-4)]GlcNAc
Method in brief: as §1

[18] = molecular target: Fuc(a1-3)[GalNAc(b1-4)]GlcNAc6S
Method in brief: as §1

[19] = molecular target: Fuc(a1-4)GlcNAc
Method in brief: as §1

[20] = molecular target: Fuc(b1-3)GlcNAc
Method in brief: as §1

[21] = molecular target: Gal(a1-2)Gal
Method in brief: as §1

[22] = molecular target: Gal(a1-3)Gal
Method in brief: as §1

[23] = molecular target: Gal(a1-3)Gal(b1-3)GlcNAc
Method in brief: as §1

[24] = molecular target: Gal(a1-3)Gal(b1-3)GlcNAc(b1-2)Man
Method in brief: as §1

[25] = molecular target: Gal(a1-3)Gal(b1-3)GlcNAc(b1-2)Man(a1-3)[Gal(a1-3)Gal(b1-3)GlcNAc(b1-2)Man(a1-6)]Man(b1-4)GlcNAc(b1-4)GlcNAc
Method in brief: as §1

[26] = molecular target: Gal(a1-3)Gal(b1-3)GlcNAc(b1-3)GalNAc
Method in brief: as §1

[27] = molecular target: Gal(a1-3)Gal(b1-3)GlcNAc(b1-6)GalNAc
Method in brief: as §1

[28] = molecular target: Gal(a1-3)Gal(b1-3)[Fuc(a1-4)]GlcNAc(b1-2)Man(a1-3)[Gal(a1-3)Gal(b1-3)[Fuc(a1-4)]GlcNAc(b1-2)Man(a1-6)]Man(b1-4)GlcNAc(b1-4)GlcNAc
Method in brief: as §1

[29] = molecular target: Gal(a1-3)Gal(b1-4)Glc
Method in brief: as §1

[30] = molecular target: Gal(a1-3)Gal(b1-4)GlcNAc
Method in brief: as §1

[31] = molecular target: Gal(a1-3)Gal(b1-4)GlcNAc(b1-2)Man
Method in brief: as §1

[32] = molecular target: Gal(a1-3)Gal(b1-4)GlcNAc(b1-2)Man(a1-3)[Gal(a1-3)Gal(b1-4)GlcNAc(b1-2)Man(a1-6)]Man(b1-4)GlcNAc(b1-4)GlcNAc
Method in brief: as §1

[33] = molecular target: Gal(a1-3)Gal(b1-4)GlcNAc(b1-3)GalNAc
Method in brief: as §1

[34] = molecular target: Gal(a1-3)Gal(b1-4)GlcNAc(b1-6)GalNAc
Method in brief: as §1

[35] = molecular target: Gal(a1-3)Gal(b1-4)[Fuc(a1-3)]GlcNAc
Method in brief: as §1

[36] = molecular target: Gal(a1-3)Gal(b1-4)[Fuc(a1-3)]GlcNAc(b1-2)Man(a1-3)[Gal(a1-3)Gal(b1-4)[Fuc(a1-3)]GlcNAc(b1-2)Man(a1-6)]Man(b1-4)GlcNAc(b1-4)GlcNAc
Method in brief: as §1

[37] = molecular target: Gal(a1-3)GalNAc
Method in brief: as §1

[38] = molecular target: Gal(a1-3)[Gal(a1-4)]Gal(b1-4)GlcNAc
Method in brief: as §1

[39] = molecular target: Gal(a1-4)Gal(b1-3)GlcNAc(b1-2)Man(a1-3)[Gal(a1-4)Gal(b1-3)GlcNAc(b1-2)Man(a1-6)]Man(b1-4)GlcNAc(b1-4)GlcNAc
Method in brief: as §1

[40] = molecular target: Gal(a1-4)Gal(b1-4)Glc
Method in brief: as §1

[41] = molecular target: Gal(a1-4)Gal(b1-4)GlcNAc
Method in brief: as §1

[42] = molecular target: Gal(a1-4)Gal(b1-4)GlcNAc(b1-2)Man(a1-3)[Gal(a1-4)Gal(b1-4)GlcNAc(b1-2)Man(a1-6)]Man(b1-4)GlcNAc(b1-4)GlcNAc
Method in brief: as §1

[43] = molecular target: Gal(a1-4)Gal(b1-4)GlcNAc(b1-3)Gal(b1-4)Glc
Method in brief: as §1

[44] = molecular target: Gal(a1-4)GlcNAc
Method in brief: as §1

[45] = molecular target: Gal(a1-6)Glc
Method in brief: as §1

B1: Lb MiSSP8 (Laccaria bicolor) (protein)
chain: MYFHTLFACATLMLITTAHASPTVINSLDSRKADLNGDVEARHAADWRRDSDWRRDSDWRRDSDWRRDSD
- glycan array binding signal (z-score) [1]: 0.437
- glycan array binding signal (z-score) [2]: 1.35
- glycan array binding signal (z-score) [3]: -0.088
- glycan array binding signal (z-score) [4]: -0.516
- glycan array binding signal (z-score) [5]: -0.709
- glycan array binding signal (z-score) [6]: 0.685
- glycan array binding signal (z-score) [7]: 1.1
- glycan array binding signal (z-score) [8]: 1.11
- glycan array binding signal (z-score) [9]: -0.675
- glycan array binding signal (z-score) [10]: -0.578
- glycan array binding signal (z-score) [11]: -0.454
- glycan array binding signal (z-score) [12]: 0.713
- glycan array binding signal (z-score) [13]: 1.99
- glycan array binding signal (z-score) [14]: 0.243
- glycan array binding signal (z-score) [15]: -0.129
- glycan array binding signal (z-score) [16]: 0.851
- glycan array binding signal (z-score) [17]: 1.06
- glycan array binding signal (z-score) [18]: -0.592
- glycan array binding signal (z-score) [19]: 2
- glycan array binding signal (z-score) [20]: 0.982
- glycan array binding signal (z-score) [21]: -0.047
- glycan array binding signal (z-score) [22]: -0.633
- glycan array binding signal (z-score) [23]: -0.392
- glycan array binding signal (z-score) [24]: -0.64
- glycan array binding signal (z-score) [25]: 0.416
- glycan array binding signal (z-score) [26]: -0.502
- glycan array binding signal (z-score) [27]: -0.806
- glycan array binding signal (z-score) [28]: 1.55
- glycan array binding signal (z-score) [29]: 0.133
- glycan array binding signal (z-score) [30]: -0.778
- glycan array binding signal (z-score) [31]: -0.751
- glycan array binding signal (z-score) [32]: 0.016
- glycan array binding signal (z-score) [33]: -0.702
- glycan array binding signal (z-score) [34]: -0.599
- glycan array binding signal (z-score) [35]: -0.488
- glycan array binding signal (z-score) [36]: 1.93
- glycan array binding signal (z-score) [37]: -0.074
- glycan array binding signal (z-score) [38]: -0.999
- glycan array binding signal (z-score) [39]: 0.119
- glycan array binding signal (z-score) [40]: 0.209
- glycan array binding signal (z-score) [41]: 0.392
- glycan array binding signal (z-score) [42]: 10.8
- glycan array binding signal (z-score) [43]: 1.15
- glycan array binding signal (z-score) [44]: -0.35
- glycan array binding signal (z-score) [45]: -0.088
